{"sequences": {"note": "By UniProt entry, the sequences of proteins in these tests, tags left out.", "UniProt P09471, whole entry, looked up": "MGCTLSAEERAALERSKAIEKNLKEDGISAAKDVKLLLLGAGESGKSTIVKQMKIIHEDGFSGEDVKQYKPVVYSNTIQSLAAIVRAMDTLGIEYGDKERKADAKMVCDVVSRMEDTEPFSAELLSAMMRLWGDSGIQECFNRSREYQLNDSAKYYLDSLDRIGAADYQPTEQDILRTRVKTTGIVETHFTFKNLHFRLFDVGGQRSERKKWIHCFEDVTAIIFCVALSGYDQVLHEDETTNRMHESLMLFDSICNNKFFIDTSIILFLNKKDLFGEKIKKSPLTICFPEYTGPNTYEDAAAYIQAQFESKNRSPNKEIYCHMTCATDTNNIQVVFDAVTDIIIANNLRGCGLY"}, "source": "PubChem BioAssay AID1439", "about": "(NMMLSC, 2008)", "note": "About 770 (0.35%) of roughly 220,000 compounds were called active. Inconclusive means that the source gave no clear call. Such entries were picked first, then a sample of the others. No stated cut-off is given here; in the data, active means binding response below about 49% or above about 150%; inconclusive means no clear call, values can overlap the other calls; inactive means in between.", "data": [{"target": "Guanine nucleotide-binding protein G(o) subunit alpha (Homo sapiens) (UniProt P09471)", "assay": "RGS7-Galphao binding modulators, primary screen, biochemical, multiplexed bead flow cytometry (AID 1439);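 further: fluorescent Galphao held in activated GDP-AlF4 state binding bead-coupled RGS7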", "conditions": "at 10 µM, actives lie on both sides", "values": [{"smiles": "CCCCC1=CC2=C(c3ccco3)C(=O)C(C)(OC(=O)c3ccc(OC)cc3)C(=O)C2=CN1Cc1ccc2c(c1)OCO2", "note": "(stereo unspecified)", "binding response (% of control)": "inconclusive: 91.4%"}, {"smiles": "O=C(CSc1ncn[nH]1)N1CCOCC1", "binding response (% of control)": "inactive: 101%"}, {"smiles": "COc1ccccc1/C=C/C=N/n1c(-c2ccc(F)cc2)n[nH]c1=S", "binding response (% of control)": "inconclusive: 88.1%"}, {"smiles": "COc1ccc(CCNC(=O)COC(=O)Cn2cnc3ccccc3c2=O)cc1", "binding response (% of control)": "inconclusive: 60.1%"}, {"smiles": "CCN1CCN(C(=O)c2cc3cc([N+](=O)[O-])ccc3oc2=O)CC1", "binding response (% of control)": "inconclusive: 14.6%"}, {"smiles": "COc1ccc(NC(=O)/C=C/c2ccco2)cn1", "binding response (% of control)": "inconclusive: 90%"}, {"smiles": "Cc1ccc(C(=O)NCC(=O)OC(C)C(=O)Nc2ccc(N3CCOCC3)cc2)s1", "note": "(stereo unspecified)", "binding response (% of control)": "inconclusive: 79.8%"}, {"smiles": "O=c1[nH]c(CSc2nc3ccccc3s2)nc2cc(Cl)ccc12", "binding response (% of control)": "inconclusive: 74.7%"}, {"smiles": "CC(C)NC(=O)C1CCN(C2CCN(Cc3ccc4cccc(F)c4n3)CC2)CC1", "binding response (% of control)": "inactive: 89.6%"}, {"smiles": "CCN(CC)CCN(Cc1cc2ccc(C)c(C)c2[nH]c1=O)C(=S)NCc1ccco1", "binding response (% of control)": "inactive: 104%"}, {"smiles": "CC(NCC(c1ccco1)N1CCCCC1)C(=O)NC1CCCC1", "note": "(stereo unspecified)", "binding response (% of control)": "inconclusive: 112%"}, {"smiles": "Cc1ccnc(N(C(=O)Nc2ccccc2)C2=NCC(C)(C)S2)c1", "binding response (% of control)": "inconclusive: 80.2%"}, {"smiles": "O=C(O)CCC(=O)NN1C(=O)c2ccccc2NC1c1ccco1", "note": "(stereo unspecified)", "binding response (% of control)": "inconclusive: 101%"}, {"smiles": "N/C(=N\\OC(=O)c1ccc(Cl)cc1Cl)c1ccncc1", "binding response (% of control)": "inconclusive: 103%"}, {"smiles": "CC1=NN(C(=O)c2ccccc2)C(O)(c2ccc(Br)cc2)C1", "note": "(stereo unspecified)", "binding response (% of control)": "inconclusive: 71.7%"}, {"smiles": "CCN(Cc1ccccc1)C(=O)COC(=O)Cn1cnc2ccccc21", "binding response (% of control)": "inconclusive: 91%"}, {"smiles": "CN(CC(=O)NCc1ccccc1Cl)CC(=O)Nc1cccc(F)c1", "binding response (% of control)": "inactive: 98.7%"}, {"smiles": "C[C@H](NC(=O)OC(C)(C)C)C(=O)N/N=C/c1cccc2nccnc12", "binding response (% of control)": "inconclusive: 60.6%"}, {"smiles": "CCOC(=O)c1c(C)n(C)c2cc([N+](=O)[O-])c(O)c([N+](=O)[O-])c12", "binding response (% of control)": "inconclusive: 231%"}, {"smiles": "O=C1CSCC(=O)N1c1ncc(C(F)(F)F)cc1Cl", "binding response (% of control)": "inconclusive: 103%"}, {"smiles": "CC(=O)c1cc(C#N)c(N2CCCC2)nc1C", "binding response (% of control)": "inconclusive: 84.5%"}, {"smiles": "CCOc1ncnc2c1sc1nc(C)cc(C)c12", "binding response (% of control)": "inconclusive: 108%"}, {"smiles": "On1nnc2c3ccccc3c3ccccc3c21", "binding response (% of control)": "inactive: 104%"}, {"smiles": "Cc1cc(C(=O)O)n(C(C)(C)C)n1", "binding response (% of control)": "inconclusive: 1.66%"}, {"smiles": "O=c1c(-c2ccc(O)cc2)coc2cc(O)cc(O)c12", "binding response (% of control)": "inconclusive: 187%"}, {"smiles": "CC(C)CC(=O)Nc1ccc(-c2nc3ccccc3c(=O)[nH]2)cc1", "binding response (% of control)": "inactive: 98%"}, {"smiles": "c1ccc(-c2noc(C3CCC3)n2)nc1", "binding response (% of control)": "inconclusive: 107%"}, {"smiles": "O=C1CSC(=S)N1c1cccnc1", "binding response (% of control)": "inactive: 97.6%"}, {"smiles": "O=c1c2ccccc2nnn1-c1ccc(Br)cc1", "binding response (% of control)": "inconclusive: 107%"}, {"smiles": "C/C(=N\\NC(N)=O)c1ccc(Cl)s1", "binding response (% of control)": "inconclusive: 369%"}, {"smiles": "NC(=O)c1cc(-c2ccccc2)nc2ccc(Br)cc12", "binding response (% of control)": "inconclusive: 202%"}, {"smiles": "Cc1ccc(CNC(=S)NCc2ccncc2)cc1", "binding response (% of control)": "inactive: 93.7%"}, {"smiles": "ON/C=N/C(=S)Nc1ncc(C(F)(F)F)cc1Cl", "binding response (% of control)": "inconclusive: 95.9%"}, {"smiles": "CN1c2ccccc2C(=O)/C(=C\\Nc2ccc(F)cc2F)S1(=O)=O", "binding response (% of control)": "inconclusive: 75.1%"}, {"smiles": "CC(C)CNC(=O)CC(c1ccccc1)c1ccccc1", "binding response (% of control)": "inactive: 102%"}, {"smiles": "CS(=O)(=O)c1ccc2nc(NC(=O)c3cccs3)sc2c1", "binding response (% of control)": "inactive: 117%"}, {"smiles": "O=C(CSc1nc2ccccc2o1)N1CCCC1", "binding response (% of control)": "inactive: 101%"}, {"smiles": "CCNc1ncnc2c1cnn2C", "binding response (% of control)": "inactive: 97.8%"}, {"smiles": "COc1nc(N)c(C#N)c(-c2ccc(N(C)CCC#N)cc2)c1C#N", "binding response (% of control)": "inconclusive: 124%"}, {"smiles": "Cc1ccc(N=CC2=C(O)CC(c3ccccc3Cl)CC2=O)cc1", "note": "(stereo unspecified)", "binding response (% of control)": "inconclusive: 49%"}, {"smiles": "CN(C)c1cc(-c2ccc(Br)cc2)oc(=O)c1Cl", "binding response (% of control)": "inconclusive: 136%"}, {"smiles": "O=C(Cc1ccccc1)NCC(=O)OCC(=O)c1cccs1", "binding response (% of control)": "inactive: 96.2%"}, {"smiles": "O=C(c1ccc(S(=O)(=O)N2CCCC2)cc1)N(Cc1ccco1)C1CCS(=O)(=O)C1", "note": "(stereo unspecified)", "binding response (% of control)": "inconclusive: 102%"}, {"smiles": "Fc1ccc(C2=CC(c3cccs3)n3nnnc3N2)cc1", "note": "(stereo unspecified)", "binding response (% of control)": "inconclusive: 90.3%"}, {"smiles": "COc1cc(CN(C(=S)NCC(=O)NC2CC2)C2CCCC2)cc(OC)c1OC", "binding response (% of control)": "inactive: 103%"}, {"smiles": "O=C(NC(=S)Nc1ccc2cn[nH]c2c1)c1ccccc1", "binding response (% of control)": "inconclusive: 85%"}, {"smiles": "COc1ccc(C(CCN2CCCC2)c2c(OC)cc(OC)c3c(-c4ccccc4)cc(=O)oc23)cc1", "note": "(stereo unspecified)", "binding response (% of control)": "inconclusive: 114%"}, {"smiles": "COc1ccccc1/C=C/C(=O)NNC(=O)c1cccs1", "binding response (% of control)": "inconclusive: 60.3%"}, {"smiles": "Cc1cccc(-n2cc(CNCCc3nc(C)cc(C)n3)c(-c3cccc(F)c3)n2)c1", "binding response (% of control)": "inconclusive: 113%"}, {"smiles": "COc1cc(SC)ccc1C(=O)Nc1ccccn1", "binding response (% of control)": "inconclusive: 103%"}, {"smiles": "COCCN(C(=S)Nc1ccc(C)cc1)C(C)c1ccco1", "note": "(stereo unspecified)", "binding response (% of control)": "inconclusive: 88.8%"}, {"smiles": "N/C(Cc1nc(-c2ccc(Br)cc2)cs1)=N\\O", "binding response (% of control)": "inactive: 102%"}, {"smiles": "O=C(N/N=C/c1oc(O)c2ccccc12)c1ccccc1", "binding response (% of control)": "inconclusive: 100%"}, {"smiles": "O=C(COc1ccc(C2SCCS2)cc1)NNC(=O)C(Cl)Cl", "binding response (% of control)": "inconclusive: 88.9%"}, {"smiles": "O=C1CC(NNC(=O)c2ccc(Br)cc2)C(=O)N1", "note": "(stereo unspecified)", "binding response (% of control)": "inconclusive: -33.6%"}, {"smiles": "CC(=O)O[C@H]1CC(C)(C)C(=C=C/C(C)=C/C=C/C(C)=C/C=C/C=C(C)/C=C/C=C(\\C)C(=O)C[C@@]23O[C@]2(C)C[C@@H](O)CC3(C)C)[C@](C)(O)C1", "binding response (% of control)": "inconclusive: 99.4%"}, {"smiles": "CC(=O)c1c(C)nn(-c2ccccc2)c1C", "binding response (% of control)": "inconclusive: 155%"}, {"smiles": "Cc1ccc(S(=O)(=O)Nc2cc(=O)[nH]c(SCC(=O)Nc3cccc(C)c3)n2)cc1", "binding response (% of control)": "inconclusive: 96.9%"}, {"smiles": "NC(=S)N/N=C/c1coc2ccc(Br)cc2c1=O", "binding response (% of control)": "inconclusive: 102%"}, {"smiles": "NC(=O)CC(NC(=O)Cc1ccc(Br)cc1)c1ccc(NCCOc2ccccc2)c([N+](=O)[O-])c1", "note": "(stereo unspecified)", "binding response (% of control)": "inconclusive: 93%"}, {"smiles": "Cc1sc2ncn(CC(=O)NCCCC(=O)N3CCN(c4ccccn4)CC3)c(=O)c2c1C", "binding response (% of control)": "inactive: 99.5%"}]}]}
